The values that follow come from publication PMC3814787, “Potential Regulatory Interactions of Escherichia coli RraA Protein with DEAD-box Helicases* ^([image sbox.jpg])” (The Journal of Biological Chemistry, 2013).

The target in experiment [1] is T1, DEAD-box helicase DbpA (Escherichia coli, UniProt P21693 1-457).
T1 construct: DbpA, DEAD-box RNA helicase, Escherichia coli; monomer of 49 kDa as printed; source: E. coli BL21(DE3), purified (ammonium sulfate precipitation, heparin column)
T1 sequence (looked up): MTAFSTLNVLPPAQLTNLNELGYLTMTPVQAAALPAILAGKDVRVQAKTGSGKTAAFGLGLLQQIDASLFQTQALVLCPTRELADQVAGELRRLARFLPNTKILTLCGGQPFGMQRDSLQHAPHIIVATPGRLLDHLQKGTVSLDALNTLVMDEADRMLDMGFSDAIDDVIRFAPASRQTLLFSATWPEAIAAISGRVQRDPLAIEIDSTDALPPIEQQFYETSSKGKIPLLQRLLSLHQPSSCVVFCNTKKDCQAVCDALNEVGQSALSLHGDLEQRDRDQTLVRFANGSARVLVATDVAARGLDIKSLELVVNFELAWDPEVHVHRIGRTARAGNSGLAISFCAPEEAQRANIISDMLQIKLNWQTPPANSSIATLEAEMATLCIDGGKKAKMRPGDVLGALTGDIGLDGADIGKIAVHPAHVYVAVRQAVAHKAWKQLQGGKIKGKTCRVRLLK
Briefly: AUC; sedimentation velocity, absorbance at 280 nm, 20 °C; 150 mM NaCl, 50 mM HEPES pH 7.5, 10% glycerol; mixtures at 1:1 helicase:RraA trimer, about 10 μM; both purified.

Experiment [2] concerns the target T2, Regulator of ribonuclease activity A (RraA) (Escherichia coli) (UniProt P0A8R0).
T2 sequence: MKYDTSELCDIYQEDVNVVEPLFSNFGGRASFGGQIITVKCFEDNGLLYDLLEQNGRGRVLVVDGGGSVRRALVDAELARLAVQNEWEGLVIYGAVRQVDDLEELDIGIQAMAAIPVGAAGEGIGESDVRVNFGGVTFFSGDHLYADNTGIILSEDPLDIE
Description: ITC; data not shown; RraA and RhlB CTE; both purified. For orientation: ITC needs no label: the signal is the heat of the interaction.

Experiment [3] has as its target DEAD-box helicase RhlB (Escherichia coli) (UniProt P0A8J8). Briefly: AUC; sedimentation velocity, absorbance at 280 nm, 20 °C; 150 mM NaCl, 50 mM HEPES pH 7.5, 10% glycerol; mixtures at 1:1 helicase:RraA trimer, about 10 μM; both purified.

No constants are given. Whether binding was seen depends on the method and setting. Some binding calls cover weakened binding; strength is not graded here.

B1: DEAD-box helicase DbpA (enzyme, UniProt P21693 1-457)
chain: MTAFSTLNVLPPAQLTNLNELGYLTMTPVQAAALPAILAGKDVRVQAKTGSGKTAAFGLGLLQQIDASLFQTQALVLCPTRELADQVAGELRRLARFLPNTKILTLCGGQPFGMQRDSLQHAPHIIVATPGRLLDHLQKGTVSLDALNTLVMDEADRMLDMGFSDAIDDVIRFAPASRQTLLFSATWPEAIAAISGRVQRDPLAIEIDSTDALPPIEQQFYETSSKGKIPLLQRLLSLHQPSSCVVFCNTKKDCQAVCDALNEVGQSALSLHGDLEQRDRDQTLVRFANGSARVLVATDVAARGLDIKSLELVVNFELAWDPEVHVHRIGRTARAGNSGLAISFCAPEEAQRANIISDMLQIKLNWQTPPANSSIATLEAEMATLCIDGGKKAKMRPGDVLGALTGDIGLDGADIGKIAVHPAHVYVAVRQAVAHKAWKQLQGGKIKGKTCRVRLLK
Regarding B1, in experiment [1], the binding result is “no binding (tested: ∼10 μM)”.

B2: RhlB(398-421) peptide (peptide)
peptide: YRLTRPRTGNGPRRTGAPRNRRRSG
Consider B2, for which the binding result in experiment [2] is listed as “binds”.

B3: DEAD-box helicase RhlB (enzyme, Escherichia coli, UniProt P0A8J8 1-421, looked up)
chain: MSKTHLTEQKFSDFALHPKVVEALEKKGFHNCTPIQALALPLTLAGRDVAGQAQTGTGKTMAFLTSTFHYLLSHPAIADRKVNQPRALIMAPTRELAVQIHADAEPLAEATGLKLGLAYGGDGYDKQLKVLESGVDILIGTTGRLIDYAKQNHINLGAIQVVVLDEADRMYDLGFIKDIRWLFRRMPPANQRLNMLFSATLSYRVRELAFEQMNNAEYIEVEPEQKTGHRIKEELFYPSNEEKMRLLQTLIEEEWPDRAIIFANTKHRCEEIWGHLAADGHRVGLLTGDVAQKKRLRILDEFTRGDLDILVATDVAARGLHIPAVTHVFNYDLPDDCEDYVHRIGRTGRAGASGHSISLACEEYALNLPAIETYIGHSIPVSKYNPDALMTDLPKPLRLTRPRTGNGPRRTGAPRNRRRSG
notes: RhlB, DEAD-box RNA helicase, Escherichia coli; monomer of 47 kDa as printed; The printed mass of 47 kDa fits the whole protein; 'full-length RhlB' is said only of the crystallisation trials
B3: the binding entry in experiment [3] is reported as “no binding (tested: ∼10 μM)”.
